Measurements from PMC8911475, “Insight into the Phylogeny and Binding Ability of WRKY Transcription Factors”.
The comparison behind a weaker result is the experiment's own reference, which may not be listed here. Where a protein sequence is shown, tags need not be part of it.

Target: T1, WRKY54 DBD (Arabidopsis thaliana) (UniProt Q93WU8)
T1 sequence (looked up): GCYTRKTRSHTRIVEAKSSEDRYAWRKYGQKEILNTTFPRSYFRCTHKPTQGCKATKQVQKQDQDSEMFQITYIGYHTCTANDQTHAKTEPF
Test: EMSA
Conditions: QCM: 30 mM HEPES pH 7.5, 0.5 M NaCl, 2 mM TCEP, 25 °C, biotin-dsDNA on avidin; fEMSA: 30 min incubation in the dark, native PAGE 4 °C 120 V 90 min, buffer not stated; recombinant protein; residues 133-224; protein details: N-term MBP + thrombin site, C-term 12xHis; label: 5' fluorescein (fEMSA), 5' biotin (QCM)

Sequence: ATTTGTTGACTA (double strand) [T12]
- binding result: binds more weakly
